This is one part of the list. Residues, ends and D or L forms follow the SMILES beside them. *: point of attachment. Cbz = O=C(OCc1ccccc1)*
Columns and labels:
Assay in all cases: log2 fold change, soluble protein after heating vs DMSO (PISA); higher = thermal stabilisation; K562 cells, 10 uM, 30 min; active = over 0.2 and 3.5 SD of the protein, either way, in both replicates (recomputed)
IRAK-1-4 Inhibitor I = compound: C1COCCN1CCN2C3=CC=CC=C3N=C2NC(=O)C4=CC(=CC=C4)[N+](=O)[O-] [IRAK-1-4 Inhibitor I]
In short: (§1)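 K562 cells at 2×10^6 cells/mL were treated with 10 μM compound for 30 min. Aliquots were heated for 3 min across 48°C-58°C, pooled, and extracted in PBS with 0.5% NP-40 at 4°C; soluble protein was the supernatant after 21,000xg for 90 min. Soluble protein was quantified by TMTpro 16plex LC-MS/MS with channel sums equalised, and reported as log2 fold change in thermal stability against DMSO controls, with values from duplicates.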

Protein sequences, listed by entry. Tags and fused reporters are not part of them. Lines headed by an entry give the natural chain unless they say otherwise; changes in a name come on top.
UniProt Q9UNF0: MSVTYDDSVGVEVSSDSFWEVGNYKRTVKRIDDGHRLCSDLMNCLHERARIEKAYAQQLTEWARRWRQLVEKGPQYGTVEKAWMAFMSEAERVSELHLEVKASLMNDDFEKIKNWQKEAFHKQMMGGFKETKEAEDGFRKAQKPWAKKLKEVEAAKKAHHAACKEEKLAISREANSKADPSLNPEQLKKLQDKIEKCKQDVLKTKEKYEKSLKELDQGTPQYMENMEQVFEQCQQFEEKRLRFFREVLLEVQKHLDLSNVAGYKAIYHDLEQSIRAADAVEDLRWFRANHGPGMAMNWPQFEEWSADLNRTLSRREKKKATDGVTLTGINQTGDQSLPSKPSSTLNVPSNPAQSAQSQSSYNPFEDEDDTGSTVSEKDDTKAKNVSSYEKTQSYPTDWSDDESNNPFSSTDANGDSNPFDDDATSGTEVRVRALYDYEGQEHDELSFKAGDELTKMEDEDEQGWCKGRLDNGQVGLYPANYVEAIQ
UniProt Q9NUG6, whole entry, looked up: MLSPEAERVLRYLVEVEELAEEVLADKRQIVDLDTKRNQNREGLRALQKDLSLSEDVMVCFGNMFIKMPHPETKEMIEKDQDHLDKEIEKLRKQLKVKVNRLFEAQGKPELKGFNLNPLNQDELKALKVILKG
UniProt P05166: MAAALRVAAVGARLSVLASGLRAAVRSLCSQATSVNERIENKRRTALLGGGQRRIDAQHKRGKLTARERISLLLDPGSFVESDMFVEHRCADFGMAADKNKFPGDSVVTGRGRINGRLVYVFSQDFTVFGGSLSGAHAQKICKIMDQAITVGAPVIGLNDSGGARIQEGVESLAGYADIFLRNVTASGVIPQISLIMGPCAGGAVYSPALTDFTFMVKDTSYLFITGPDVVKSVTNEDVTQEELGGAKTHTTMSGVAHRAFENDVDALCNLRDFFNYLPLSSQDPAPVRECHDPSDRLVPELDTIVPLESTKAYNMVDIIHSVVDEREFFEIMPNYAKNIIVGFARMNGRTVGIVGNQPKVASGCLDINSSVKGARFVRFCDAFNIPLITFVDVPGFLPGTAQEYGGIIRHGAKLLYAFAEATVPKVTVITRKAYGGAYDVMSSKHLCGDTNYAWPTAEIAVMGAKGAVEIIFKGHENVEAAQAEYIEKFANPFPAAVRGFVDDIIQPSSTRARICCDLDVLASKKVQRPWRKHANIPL
UniProt Q9NVE7: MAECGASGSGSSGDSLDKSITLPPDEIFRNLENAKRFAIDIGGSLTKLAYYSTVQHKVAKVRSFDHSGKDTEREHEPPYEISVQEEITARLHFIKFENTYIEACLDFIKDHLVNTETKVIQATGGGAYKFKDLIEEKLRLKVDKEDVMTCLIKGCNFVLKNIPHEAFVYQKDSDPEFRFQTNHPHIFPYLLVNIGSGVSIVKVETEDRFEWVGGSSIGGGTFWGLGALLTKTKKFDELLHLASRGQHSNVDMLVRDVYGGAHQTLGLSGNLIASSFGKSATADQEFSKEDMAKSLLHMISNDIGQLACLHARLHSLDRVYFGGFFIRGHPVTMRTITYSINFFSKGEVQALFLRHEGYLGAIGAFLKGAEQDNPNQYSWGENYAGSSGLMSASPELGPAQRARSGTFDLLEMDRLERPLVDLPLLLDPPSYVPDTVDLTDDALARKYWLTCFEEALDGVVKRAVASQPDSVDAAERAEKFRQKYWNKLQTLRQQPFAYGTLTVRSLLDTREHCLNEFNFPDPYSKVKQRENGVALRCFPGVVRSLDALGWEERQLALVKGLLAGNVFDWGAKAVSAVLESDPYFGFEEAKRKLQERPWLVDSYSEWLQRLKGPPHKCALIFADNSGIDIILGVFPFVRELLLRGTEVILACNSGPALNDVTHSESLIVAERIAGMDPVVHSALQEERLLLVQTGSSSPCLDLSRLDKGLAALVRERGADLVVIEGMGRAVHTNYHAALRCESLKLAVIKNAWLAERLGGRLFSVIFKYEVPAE
UniProt Q96GU1: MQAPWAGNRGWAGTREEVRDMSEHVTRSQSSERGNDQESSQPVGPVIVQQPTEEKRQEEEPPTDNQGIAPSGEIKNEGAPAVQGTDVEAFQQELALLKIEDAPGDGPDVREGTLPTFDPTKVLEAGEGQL
UniProt Q15084: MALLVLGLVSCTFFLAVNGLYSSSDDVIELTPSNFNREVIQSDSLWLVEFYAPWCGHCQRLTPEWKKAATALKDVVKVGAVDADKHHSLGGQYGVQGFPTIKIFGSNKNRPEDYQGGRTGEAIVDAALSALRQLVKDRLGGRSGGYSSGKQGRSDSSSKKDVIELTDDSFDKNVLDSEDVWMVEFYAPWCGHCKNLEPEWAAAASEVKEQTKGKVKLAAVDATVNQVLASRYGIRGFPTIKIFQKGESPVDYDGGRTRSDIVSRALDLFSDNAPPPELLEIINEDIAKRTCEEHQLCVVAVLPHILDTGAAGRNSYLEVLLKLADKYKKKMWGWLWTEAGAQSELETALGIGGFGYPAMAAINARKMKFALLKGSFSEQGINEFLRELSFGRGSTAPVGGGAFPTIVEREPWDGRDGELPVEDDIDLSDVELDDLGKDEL
UniProt O75459: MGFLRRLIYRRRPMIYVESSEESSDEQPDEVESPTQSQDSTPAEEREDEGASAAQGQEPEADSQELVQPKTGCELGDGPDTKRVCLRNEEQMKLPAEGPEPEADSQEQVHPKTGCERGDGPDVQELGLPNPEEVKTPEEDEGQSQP
UniProt P0DJ07: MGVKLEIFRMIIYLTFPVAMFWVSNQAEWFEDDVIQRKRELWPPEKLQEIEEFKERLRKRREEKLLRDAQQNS
UniProt Q99497, whole entry, looked up: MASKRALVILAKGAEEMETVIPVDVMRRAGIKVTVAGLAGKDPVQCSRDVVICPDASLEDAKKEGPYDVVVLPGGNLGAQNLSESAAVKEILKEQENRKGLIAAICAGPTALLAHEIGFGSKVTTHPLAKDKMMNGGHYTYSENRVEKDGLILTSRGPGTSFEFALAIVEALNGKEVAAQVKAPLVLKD
UniProt Q8NCN5: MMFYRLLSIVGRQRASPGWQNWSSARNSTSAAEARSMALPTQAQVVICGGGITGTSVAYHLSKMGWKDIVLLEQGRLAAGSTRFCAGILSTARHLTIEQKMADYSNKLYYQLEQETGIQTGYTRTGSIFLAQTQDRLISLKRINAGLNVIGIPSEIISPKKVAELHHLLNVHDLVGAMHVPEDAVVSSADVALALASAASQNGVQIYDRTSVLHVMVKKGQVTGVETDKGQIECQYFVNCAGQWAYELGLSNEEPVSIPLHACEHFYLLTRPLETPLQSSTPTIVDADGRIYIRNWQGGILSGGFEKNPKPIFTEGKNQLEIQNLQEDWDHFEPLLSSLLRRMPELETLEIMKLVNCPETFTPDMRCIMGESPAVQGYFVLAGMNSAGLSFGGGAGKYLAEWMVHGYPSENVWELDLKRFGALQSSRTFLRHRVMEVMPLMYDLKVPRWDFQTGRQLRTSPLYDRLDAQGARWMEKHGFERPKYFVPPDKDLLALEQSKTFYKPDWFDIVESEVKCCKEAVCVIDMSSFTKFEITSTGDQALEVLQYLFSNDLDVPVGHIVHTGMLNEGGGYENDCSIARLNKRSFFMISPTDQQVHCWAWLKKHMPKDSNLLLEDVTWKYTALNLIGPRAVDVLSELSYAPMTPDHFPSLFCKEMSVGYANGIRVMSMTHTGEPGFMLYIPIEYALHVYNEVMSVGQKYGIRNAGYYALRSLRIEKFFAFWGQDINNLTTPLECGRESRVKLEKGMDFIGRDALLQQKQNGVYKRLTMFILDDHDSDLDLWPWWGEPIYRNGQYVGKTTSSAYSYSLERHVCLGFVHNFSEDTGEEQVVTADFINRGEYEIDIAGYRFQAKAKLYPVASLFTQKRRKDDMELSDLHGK
UniProt P22061: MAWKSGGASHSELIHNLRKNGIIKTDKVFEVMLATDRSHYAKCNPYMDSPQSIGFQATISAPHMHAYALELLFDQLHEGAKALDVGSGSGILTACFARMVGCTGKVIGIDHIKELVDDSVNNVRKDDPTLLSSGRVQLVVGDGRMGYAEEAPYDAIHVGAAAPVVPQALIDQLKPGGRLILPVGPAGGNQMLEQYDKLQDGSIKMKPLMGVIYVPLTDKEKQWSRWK
UniProt Q9BUH6, whole entry, looked up: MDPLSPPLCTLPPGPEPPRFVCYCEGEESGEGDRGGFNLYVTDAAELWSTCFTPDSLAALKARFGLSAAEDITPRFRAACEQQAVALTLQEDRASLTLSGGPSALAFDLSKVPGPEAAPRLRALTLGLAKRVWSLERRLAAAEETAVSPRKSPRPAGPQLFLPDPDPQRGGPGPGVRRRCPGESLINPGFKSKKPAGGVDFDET
UniProt A6NDB9: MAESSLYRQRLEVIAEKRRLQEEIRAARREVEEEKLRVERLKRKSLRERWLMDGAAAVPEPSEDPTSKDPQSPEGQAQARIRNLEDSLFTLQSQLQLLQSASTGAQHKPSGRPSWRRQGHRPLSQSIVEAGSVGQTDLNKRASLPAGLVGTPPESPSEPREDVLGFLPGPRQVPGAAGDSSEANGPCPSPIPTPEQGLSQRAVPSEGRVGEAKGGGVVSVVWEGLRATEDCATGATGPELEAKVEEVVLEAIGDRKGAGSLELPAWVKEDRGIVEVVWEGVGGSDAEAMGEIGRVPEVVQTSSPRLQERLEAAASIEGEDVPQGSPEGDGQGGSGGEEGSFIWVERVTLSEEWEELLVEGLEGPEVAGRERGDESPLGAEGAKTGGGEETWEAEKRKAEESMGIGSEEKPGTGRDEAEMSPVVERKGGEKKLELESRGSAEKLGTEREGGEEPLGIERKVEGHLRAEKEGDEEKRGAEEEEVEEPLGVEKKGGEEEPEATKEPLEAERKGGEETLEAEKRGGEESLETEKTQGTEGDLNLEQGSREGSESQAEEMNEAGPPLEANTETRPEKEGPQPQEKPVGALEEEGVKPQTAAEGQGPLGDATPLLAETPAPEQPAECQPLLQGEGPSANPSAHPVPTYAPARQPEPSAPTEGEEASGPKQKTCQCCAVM
UniProt P51003: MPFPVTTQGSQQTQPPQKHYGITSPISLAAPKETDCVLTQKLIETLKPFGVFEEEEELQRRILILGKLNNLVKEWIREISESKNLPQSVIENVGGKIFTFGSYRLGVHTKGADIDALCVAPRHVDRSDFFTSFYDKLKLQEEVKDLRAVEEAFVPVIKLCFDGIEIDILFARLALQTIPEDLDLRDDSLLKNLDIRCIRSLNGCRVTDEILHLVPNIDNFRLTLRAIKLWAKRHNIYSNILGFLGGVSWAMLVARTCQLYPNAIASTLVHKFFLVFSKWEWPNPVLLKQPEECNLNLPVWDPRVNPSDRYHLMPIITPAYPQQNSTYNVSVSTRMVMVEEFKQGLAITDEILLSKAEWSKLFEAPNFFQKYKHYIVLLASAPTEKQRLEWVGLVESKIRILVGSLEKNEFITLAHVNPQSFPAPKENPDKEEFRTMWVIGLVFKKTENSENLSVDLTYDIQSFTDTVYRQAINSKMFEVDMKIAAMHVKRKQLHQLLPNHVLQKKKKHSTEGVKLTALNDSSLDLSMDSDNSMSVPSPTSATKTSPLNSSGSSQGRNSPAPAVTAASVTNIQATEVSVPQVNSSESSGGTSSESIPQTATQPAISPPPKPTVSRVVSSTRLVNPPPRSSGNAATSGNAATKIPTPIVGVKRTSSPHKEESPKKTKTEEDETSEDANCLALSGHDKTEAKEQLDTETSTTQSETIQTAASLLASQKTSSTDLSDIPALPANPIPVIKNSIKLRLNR
UniProt O00541, whole entry, looked up: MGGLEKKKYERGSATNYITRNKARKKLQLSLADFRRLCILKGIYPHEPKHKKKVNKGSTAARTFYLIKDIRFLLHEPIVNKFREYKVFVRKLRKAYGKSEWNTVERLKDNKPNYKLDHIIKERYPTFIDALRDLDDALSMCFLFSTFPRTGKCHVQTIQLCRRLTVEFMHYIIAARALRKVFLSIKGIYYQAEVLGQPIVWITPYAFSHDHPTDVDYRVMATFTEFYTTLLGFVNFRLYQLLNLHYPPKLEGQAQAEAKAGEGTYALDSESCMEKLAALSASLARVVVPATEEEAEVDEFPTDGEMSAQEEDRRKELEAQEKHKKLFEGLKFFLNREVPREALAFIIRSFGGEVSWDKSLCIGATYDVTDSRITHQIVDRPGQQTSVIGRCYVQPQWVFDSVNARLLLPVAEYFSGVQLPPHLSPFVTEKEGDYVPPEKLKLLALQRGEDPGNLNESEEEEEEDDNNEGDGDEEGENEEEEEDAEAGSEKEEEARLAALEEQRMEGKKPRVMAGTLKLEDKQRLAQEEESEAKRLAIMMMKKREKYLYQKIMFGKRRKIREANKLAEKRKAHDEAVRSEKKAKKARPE

ibrutinib = compound: C=CC(=O)N1CCC[C@@H](n2nc(-c3ccc(Oc4ccccc4)cc3)c3c(N)ncnc32)C1 [ibrutinib]
In short: as §1

[1] = compound: CC(=O)c1cnc2ccc(-c3cc(Cl)c(O)c(Cl)c3)nc2c1N[C@H]1CC[C@H](CN(C)C)CC1
In short: as §1

ralimetinib = compound: CC(C)(C)Cn1c(N)nc2ccc(-c3[nH]c(C(C)(C)C)nc3-c3ccc(F)cc3)nc21 [ralimetinib]
In short: as §1

[2] = compound: CC(C)(O)CC(=O)NCCn1ccc2ncnc(Nc3ccc(Oc4cccc(C(F)(F)F)c4)c(Cl)c3)c21
In short: as §1

[3] = compound: CC(C)C1=C2N=C(C=C(N2N=C1)NCC3=CC=CC=C3)NCCCCCCN
In short: as §1

[4] = compound: CC(C)C[C@@H](C=O)NC(=O)[C@H](CC(C)C)NC(=O)[C@H](CC(C)C)NC(=O)OCc1ccccc1
In short: as §1

pinometostat = compound: CC(C)N(C[C@H]1O[C@@H](n2cnc3c(N)ncnc32)[C@H](O)[C@@H]1O)[C@H]1C[C@@H](CCc2nc3cc(C(C)(C)C)ccc3[nH]2)C1 [pinometostat]
In short: as §1

[5] = compound: CC1=C(C(CC(=O)N1)C2=CC=C(C=C2)C(F)(F)F)C(=O)NC3=C(C=C4C(=C3)C=NN4)F
In short: as §1

[6] = compound: CC1=C(C2=C(C=C1)C(=O)C3=CC=CC=C3N2CCCN)C
In short: as §1

[7] = compound: CC1=C(C=C(C=C1)NC(=O)C2=CC(=CC=C2)C(C)(C)C#N)NC3=CC4=C(C=C3)N=CN(C4=O)C
In short: as §1

[8] = compound: CC1=C(C=C(C=C1)NC(=O)C2=CC(=CC=C2)N(C)C)NC(=O)C3=CC=C(C=C3)O
In short: as §1

[9] = compound: CC1=CC=C(C=C1)SC2=C3C=C(SC3=CN=C2)C(=O)N
In short: as §1

[10] = compound: CC1=NC(=CC=C1)C2=C(N=C(N2)C(C)(C)C)C3=CC4=NC=CN=C4C=C3
In short: as §1

Nexturastat A = compound: CCCCN(Cc1ccc(C(=O)NO)cc1)C(=O)Nc1ccccc1 [Nexturastat A]
In short: as §1

vemurafenib = compound: CCCS(=O)(=O)Nc1ccc(F)c(C(=O)c2c[nH]c3ncc(-c4ccc(Cl)cc4)cc23)c1F [vemurafenib]
In short: as §1

[11] = compound: CCCS(=O)(=O)Nc1ccc(F)c(C(=O)c2c[nH]c3ncc(Cl)cc23)c1F
In short: as §1

[12] = compound: CCCc1cc(C)[nH]c(=O)c1CNC(=O)c1cc(-c2ccnc(N3CCN(C)CC3)c2)cc2c1cnn2C(C)C
In short: as §1

givinostat = compound: CCN(CC)Cc1ccc2cc(COC(=O)Nc3ccc(C(=O)NO)cc3)ccc2c1 [givinostat]
In short: as §1

barasertib = compound: CCN(CCCOc1ccc2c(Nc3cc(CC(=O)Nc4cccc(F)c4)[nH]n3)ncnc2c1)CCOP(=O)(O)O [barasertib]
In short: as §1

Measured: log2 fold change

PACSIN2 (UniProt Q9UNF0)
inactive: IRAK-1-4 Inhibitor I -0.052 | ibrutinib -0.018 | [1] -0.192 | ralimetinib 0.039 | [2] -0.13 | [3] -0.247 | [4] 0.058 | pinometostat 0.089 | [5] 0.02 | [6] 0.044 | [7] 0.012 | [8] -0.066 | [9] -0.006 | [10] -0.031 | Nexturastat A -0.007 | vemurafenib 0.048 | [11] 0.016 | [12] 0.091 | givinostat 0.115 | barasertib 0.065

PDRG1 (UniProt Q9NUG6)
inactive: IRAK-1-4 Inhibitor I 0.032 | ibrutinib -0.028 | [1] -0.005 | ralimetinib 0.108 | [2] 0.01 | [3] 0.002 | [4] -0.109 | pinometostat 0.004 | [5] -0.009 | [6] 0.062 | [7] 0.039 | [8] -0.064 | [9] 0 | [10] 0.012 | Nexturastat A 0.014 | vemurafenib 0.032 | [11] -0.008 | [12] -0.054 | givinostat 0.008 | barasertib 0.009

PCCB isoform 2 (UniProt P05166)
inactive: IRAK-1-4 Inhibitor I 0.051 | ibrutinib 0.036 | [1] 0.031 | ralimetinib 0.007 | [2] 0.06 | [3] 0.053 | [4] 0.011 | pinometostat -0.01 | [5] 0.038 | [6] 0.03 | [7] -0.015 | [8] 0.021 | [9] -0.008 | [10] 0.004 | Nexturastat A -0.028 | vemurafenib -0.001 | [11] -0.022 | [12] -0.04 | givinostat 0 | barasertib -0.005

PANK4 (UniProt Q9NVE7)
inactive: IRAK-1-4 Inhibitor I 0.053 | ibrutinib -0.006 | [1] -0.023 | ralimetinib 0.041 | [2] 0.007 | [3] 0.126 | [4] 0.022 | pinometostat -0.029 | [5] -0.049 | [6] 0.004 | [7] -0.006 | [8] -0.027 | [9] -0.035 | [10] -0.004 | Nexturastat A -0.054 | vemurafenib -0.008 | [11] 0.02 | [12] 0.035 | givinostat -0.02 | barasertib 0.027

Two entries picked at random from the list so far:
PANK4 (UniProt Q9NVE7)
inactive: IRAK-1-4 Inhibitor I 0.053 | ibrutinib -0.006 | [1] -0.023 | ralimetinib 0.041 | [2] 0.007 | [3] 0.126 | [4] 0.022 | pinometostat -0.029 | [5] -0.049 | [6] 0.004 | [7] -0.006 | [8] -0.027 | [9] -0.035 | [10] -0.004 | Nexturastat A -0.054 | vemurafenib -0.008 | [11] 0.02 | [12] 0.035 | givinostat -0.02 | barasertib 0.027

PACSIN2 (UniProt Q9UNF0)
inactive: IRAK-1-4 Inhibitor I -0.052 | ibrutinib -0.018 | [1] -0.192 | ralimetinib 0.039 | [2] -0.13 | [3] -0.247 | [4] 0.058 | pinometostat 0.089 | [5] 0.02 | [6] 0.044 | [7] 0.012 | [8] -0.066 | [9] -0.006 | [10] -0.031 | Nexturastat A -0.007 | vemurafenib 0.048 | [11] 0.016 | [12] 0.091 | givinostat 0.115 | barasertib 0.065

(next part)

PAGE5 (UniProt Q96GU1)
inactive: IRAK-1-4 Inhibitor I -0.014 | ibrutinib -0.057 | [1] -0.111 | ralimetinib -0.07 | [2] -0.244 | [3] 0.045 | [4] -0.155 | pinometostat -0.21 | [5] 0.034 | [6] 0.363 | [7] -0.028 | [8] 0.038 | [9] -0.005 | [10] 0.04 | Nexturastat A -0.047 | vemurafenib 0.177 | [11] -0.006 | [12] -0.032 | givinostat -0.103 | barasertib 0.024

PDIA6 isoform 2 (UniProt Q15084)
inactive: IRAK-1-4 Inhibitor I 0.002 | ibrutinib -0.024 | [1] 0.023 | ralimetinib -0.001 | [2] 0.045 | [3] 0.001 | [4] 0.013 | pinometostat -0.023 | [5] 0.028 | [6] -0.042 | [7] -0.031 | [8] -0.01 | [9] -0.013 | [10] 0.014 | Nexturastat A -0.016 | vemurafenib -0.03 | [11] -0.079 | [12] -0.002 | givinostat -0.044 | barasertib 0.041

PAGE1 (UniProt O75459)
inactive: IRAK-1-4 Inhibitor I 0.064 | ibrutinib 0 | [1] 0.112 | ralimetinib 0.153 | [2] 0.008 | [3] 0.126 | [4] -0.133 | pinometostat -0.042 | [5] 0.053 | [6] -0.134 | [7] 0.003 | [8] -0.014 | [9] -0.038 | [10] 0.007 | Nexturastat A 0.032 | vemurafenib -0.019 | [11] -0.122 | [12] 0.001 | givinostat -0.106 | barasertib 0.068

PET100 (UniProt P0DJ07)
inactive: IRAK-1-4 Inhibitor I 0.052 | ibrutinib -0.004 | [1] -0.031 | ralimetinib -0.076 | [2] -0.069 | [3] 0.121 | [4] -0.073 | pinometostat -0.028 | [5] -0.07 | [6] -0.023 | [7] -0.076 | [8] 0 | [9] 0 | [10] -0.043 | Nexturastat A 0 | vemurafenib 0.043 | [11] -0.098 | [12] 0.047 | givinostat 0.005 | barasertib 0.019

PDIA3 (UniProt P30101)
inactive: IRAK-1-4 Inhibitor I -0.069 | ibrutinib -0.076 | [1] 0.038 | ralimetinib 0.064 | [2] 0.045 | [3] -0.063 | [4] -0.004 | pinometostat 0.013 | [5] 0.02 | [6] -0.03 | [7] 0.078 | [8] -0.041 | [9] -0.052 | [10] 0 | Nexturastat A -0.031 | vemurafenib -0.015 | [11] -0.044 | [12] 0.092 | givinostat -0.014 | barasertib -0.013

PARK7 (UniProt Q99497)
inactive: IRAK-1-4 Inhibitor I 0.029 | ibrutinib -0.025 | [1] 0.041 | ralimetinib 0.116 | [2] 0.003 | [3] 0.047 | [4] -0.106 | pinometostat -0.064 | [5] 0.001 | [6] 0.013 | [7] 0.187 | [8] -0.002 | [9] 0.096 | [10] 0.049 | Nexturastat A -0.085 | vemurafenib 0.182 | [11] 0.085 | [12] 0.216 | givinostat -0.002 | barasertib 0.025

PDPR (UniProt Q8NCN5)
inactive: IRAK-1-4 Inhibitor I 0.002 | ibrutinib 0.048 | [1] -0.027 | ralimetinib -0.043 | [2] 0.032 | [3] -0.044 | [4] -0.019 | pinometostat -0.019 | [5] -0.009 | [6] -0.018 | [7] 0.077 | [8] 0.015 | [9] 0.031 | [10] -0.002 | Nexturastat A -0.035 | vemurafenib 0.017 | [11] 0.052 | [12] -0.023 | givinostat -0.014 | barasertib 0.022

PCMT1 isoform 2 (UniProt P22061)
inactive: IRAK-1-4 Inhibitor I 0.018 | ibrutinib 0.008 | [1] -0.003 | ralimetinib -0.045 | [2] -0.024 | [3] 0.002 | [4] -0.045 | pinometostat -0.025 | [5] -0.025 | [6] 0.073 | [7] 0.047 | [8] -0.025 | [9] -0.01 | [10] 0.048 | Nexturastat A -0.098 | vemurafenib 0.032 | [11] 0 | [12] -0.012 | givinostat -0.041 | barasertib 0.009

PAXX (UniProt Q9BUH6)
inactive: IRAK-1-4 Inhibitor I 0.024 | ibrutinib 0.015 | [1] 0.034 | ralimetinib -0.014 | [2] 0.024 | [3] 0.169 | [4] -0.045 | pinometostat -0.06 | [5] 0.018 | [6] 0 | [7] -0.012 | [8] 0.051 | [9] 0.056 | [10] 0.016 | Nexturastat A 0.025 | vemurafenib -0.02 | [11] -0.027 | [12] -0.058 | givinostat -0.013 | barasertib -0.005

PALM3 (UniProt A6NDB9)
inactive: IRAK-1-4 Inhibitor I 0.034 | ibrutinib 0.004 | [1] -0.016 | ralimetinib 0.081 | [2] 0.032 | [3] 0.19 | [4] -0.051 | pinometostat -0.04 | [5] -0.008 | [6] 0.033 | [7] -0.031 | [8] 0 | [9] -0.029 | [10] 0.046 | Nexturastat A 0.066 | vemurafenib 0.086 | [11] -0.009 | [12] -0.007 | givinostat 0 | barasertib 0.005

PAPOLA (UniProt P51003)
inactive: IRAK-1-4 Inhibitor I 0.045 | ibrutinib -0.026 | [1] -0.031 | ralimetinib -0.028 | [2] -0.066 | [3] 0.062 | [4] -0.016 | pinometostat -0.003 | [5] -0.011 | [6] 0.023 | [7] -0.006 | [8] 0.011 | [9] 0.027 | [10] 0.022 | Nexturastat A -0.043 | vemurafenib 0.059 | [11] 0.034 | [12] -0.001 | givinostat -0.047 | barasertib 0.014

PES1 (UniProt O00541)
inactive: IRAK-1-4 Inhibitor I 0.141 | ibrutinib 0.124 | [1] -0.112 | ralimetinib 0.079 | [2] 0.053 | [3] -0.045 | [4] 0.133 | pinometostat -0.258 | [5] -0.036 | [6] -0.14 | [7] -0.041 | [8] 0.044 | [9] -0.053 | [10] -0.106 | Nexturastat A 0.177 | vemurafenib 0.084 | [11] -0.016 | [12] 0.399 | givinostat 0.039 | barasertib 0.003

From the supplement of paper PMC10849652
